Earlier results as cited in patent publication US10100366B2, “Methods of detecting cancers sensitive to cabozantinib” (Oregon Health & Science University, priority 2015, dated 2018).
At least one compound was matched to its structure with a doubt left.

By UniProt entry, the sequences of proteins in these tests, tags left out. Residues count along the entry.
UniProt P08922, 28-2347 G2032R: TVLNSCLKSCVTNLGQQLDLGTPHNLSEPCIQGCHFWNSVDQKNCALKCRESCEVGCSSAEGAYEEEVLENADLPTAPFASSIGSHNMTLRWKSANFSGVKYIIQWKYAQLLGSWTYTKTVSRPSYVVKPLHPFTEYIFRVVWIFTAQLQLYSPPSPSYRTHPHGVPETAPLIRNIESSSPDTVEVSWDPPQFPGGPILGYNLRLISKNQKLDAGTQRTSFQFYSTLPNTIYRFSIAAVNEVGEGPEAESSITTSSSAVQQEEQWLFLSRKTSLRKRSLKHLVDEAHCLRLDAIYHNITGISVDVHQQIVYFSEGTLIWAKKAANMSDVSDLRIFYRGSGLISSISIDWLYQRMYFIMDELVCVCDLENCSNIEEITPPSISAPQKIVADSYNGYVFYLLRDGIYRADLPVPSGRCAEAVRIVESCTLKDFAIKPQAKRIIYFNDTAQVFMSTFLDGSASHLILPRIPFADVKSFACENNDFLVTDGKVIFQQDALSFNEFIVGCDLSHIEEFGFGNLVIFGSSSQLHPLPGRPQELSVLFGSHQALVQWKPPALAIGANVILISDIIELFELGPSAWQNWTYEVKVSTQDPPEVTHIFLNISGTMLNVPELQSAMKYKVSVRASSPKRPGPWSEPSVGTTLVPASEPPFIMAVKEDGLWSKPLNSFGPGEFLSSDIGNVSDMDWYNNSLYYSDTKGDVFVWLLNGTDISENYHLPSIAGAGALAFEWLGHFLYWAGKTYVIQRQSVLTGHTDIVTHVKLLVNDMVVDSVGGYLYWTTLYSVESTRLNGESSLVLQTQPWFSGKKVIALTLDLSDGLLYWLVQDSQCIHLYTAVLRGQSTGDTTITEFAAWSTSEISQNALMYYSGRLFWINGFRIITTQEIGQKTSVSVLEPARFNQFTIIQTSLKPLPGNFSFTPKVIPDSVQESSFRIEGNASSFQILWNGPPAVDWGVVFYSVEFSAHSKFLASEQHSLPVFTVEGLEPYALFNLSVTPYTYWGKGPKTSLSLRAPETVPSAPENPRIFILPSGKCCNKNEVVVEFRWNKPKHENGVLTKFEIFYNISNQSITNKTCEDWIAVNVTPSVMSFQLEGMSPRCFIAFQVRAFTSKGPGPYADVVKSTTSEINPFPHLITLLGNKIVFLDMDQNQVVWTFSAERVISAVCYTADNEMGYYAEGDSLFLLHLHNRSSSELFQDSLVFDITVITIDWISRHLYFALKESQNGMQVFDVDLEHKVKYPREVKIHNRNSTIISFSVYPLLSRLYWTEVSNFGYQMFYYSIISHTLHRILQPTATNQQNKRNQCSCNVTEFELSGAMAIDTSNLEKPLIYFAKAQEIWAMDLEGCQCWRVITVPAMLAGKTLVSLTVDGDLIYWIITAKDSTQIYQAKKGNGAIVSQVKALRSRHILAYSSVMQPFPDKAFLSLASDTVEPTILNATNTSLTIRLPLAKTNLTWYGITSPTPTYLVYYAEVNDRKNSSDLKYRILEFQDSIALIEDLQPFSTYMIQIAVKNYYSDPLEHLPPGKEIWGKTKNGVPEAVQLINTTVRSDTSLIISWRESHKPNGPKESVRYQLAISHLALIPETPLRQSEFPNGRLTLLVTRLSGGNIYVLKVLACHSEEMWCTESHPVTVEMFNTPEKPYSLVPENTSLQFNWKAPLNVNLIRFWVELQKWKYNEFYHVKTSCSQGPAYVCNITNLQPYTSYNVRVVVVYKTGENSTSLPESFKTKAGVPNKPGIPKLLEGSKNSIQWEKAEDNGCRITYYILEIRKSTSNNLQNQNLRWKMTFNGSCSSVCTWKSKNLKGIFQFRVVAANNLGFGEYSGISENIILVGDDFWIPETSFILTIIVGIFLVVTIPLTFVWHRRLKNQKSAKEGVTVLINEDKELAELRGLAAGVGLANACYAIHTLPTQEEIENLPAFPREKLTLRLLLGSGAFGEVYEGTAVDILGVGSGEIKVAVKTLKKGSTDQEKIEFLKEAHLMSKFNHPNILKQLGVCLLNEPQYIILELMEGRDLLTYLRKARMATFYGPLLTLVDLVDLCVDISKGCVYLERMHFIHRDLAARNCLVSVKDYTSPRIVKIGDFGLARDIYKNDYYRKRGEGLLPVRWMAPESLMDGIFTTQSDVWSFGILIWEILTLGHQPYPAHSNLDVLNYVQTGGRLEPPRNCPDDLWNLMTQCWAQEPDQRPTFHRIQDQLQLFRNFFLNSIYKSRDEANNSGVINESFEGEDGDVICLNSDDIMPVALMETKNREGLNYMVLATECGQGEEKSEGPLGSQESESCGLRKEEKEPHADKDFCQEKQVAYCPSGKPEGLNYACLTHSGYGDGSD

Molecular target: ROS1 G2032R mutant (Homo sapiens, UniProt P08922, G2032R)
Details: previous data; cited from earlier work

COc1cc2nccc(Oc3ccc(NC(=O)C4(C(=O)Nc5ccc(F)cc5)CC4)cc3)c2cc1OC [cabozantinib]
activity against ROS1 G2032R mutant (in words): active
